The list shows only some results of the screen, not a fair sample: it gathers some chemical classes. Other doses and runs of a compound may be missing. T/C is the treated group as % of the vehicle group. Where survival is the endpoint, the PubChem record calls one and a half times the control and up active, and a quarter to a half above the control has no call in these data; cut-offs in other NCI protocols can differ. Some T/C values are marked as having no survivor count here; that says nothing about deaths at the dose. Schedule codes are those of the source, taken here to give the interval after Q, in days (D) or hours (H), and the number of doses after X.
System: mice, LPC-1 plasma cell tumor ip, median survival T/C
Experiment: NCI In Vivo Anticancer Drug Screen. Data for tumor model Lieberman Plasma Cell No. 1 (LPC-1) (intraperitoneal) in unknown mice
Settings: T/C endpoint: median survival time, schedule: Q01DX028 (sc), vehicle: water, higher T/C = longer survival
Description: The antitumor activity of compounds was measured in mice bearing transplantable tumors. Survival or tumor size were measured and the results are expressed as the measurement made in the treated group (T) divided by the measurement made in the vehicle treated control group (C). The tumor model used in this assay is Lieberman Plasma Cell No. 1 (LPC-1) (intraperitoneal) in unknown mice

For C[N+](CCCl)(CCCl)Cc1ccc([N+](=O)[O-])cc1, the T/C (dose: 3.0 mg/kg/injection) was 100 % of control [survivor count not shown], the T/C (dose: 5.0 mg/kg/injection) was 128 % of control [survivor count not shown] and the T/C (dose: 8.3 mg/kg/injection) was 105 % of control [survivor count not shown]. For the same compound, the T/C (dose: 14.0 mg/kg/injection) was 92 % of control [survivor count not shown] and the T/C (dose: 23.0 mg/kg/injection) was 94 % of control [survivor count not shown].

Source: PubChem BioAssay AID344 (DTP/NCI, 2004)
